These are yes or no findings as the source states them, for the method shown. Binding seen in cells or lysates may run through a third protein. These calls come from enrichment with a bait or labelling near it, and not all partners need be listed.
B1: Wiskott-Aldrich syndrome protein family member 1 (protein, UniProt Q8R5H6 1-559)
chain: MPLVKRNIDPRHLCHTALPRGIKNELECVTNISLANIIRQLSSLSKYAEDIFGELFNEAHSFSFRVNSLQERVDRLSVSVTQLDPKEEELSLQDITMRKAFRSSTIQDQQLFDRKTLPIPLQETYDVCEQPPPLNILTPYRDDGKEGLKFYTNPSYFFDLWKEKMLQDTEDKRKEKRKQKQKNLDRPHEPEKVPRAPHDRRREWQKLAQGPELAEDDADLLHKHIEVANGPASHYETRPQTYVDHMDGSYSLSALPFSQMSELLTRAEERVLVRPHEPPPPPPMHGAGDAKPTPTCISSATGLIENRPQSPAAGRTPVFVSPTPPPPPPPLPSALSTSSLRASMTSTPPPPVPPPPPPPATALQAPAVPPPPAPLQIAPGVLHPAPPPIAPPLVQPSPPVARAAPVCETVPVHPLPQGEVQGLPPPPPPPPLPPPGIRPSSPVAVAALAHPPSGLHPAPSTAPGPHAPLMPPSPPSQVLPASEPKRHPSTLPVISDARSVLLEAIRKGIQLRKVEEQREQEAKHERIENDVATILSRRIAVEYSDSEDDSEFDEVDWLE
B2: Glycine—tRNA ligase (protein, UniProt Q9CZD3 34-729)
chain: LSAPAQPAASRSSMDSAEELLAPLRLAVRQQGDFVRKLKEDKAPQVDVDRAVAELKARKRVLEAKELALQPKDDIVDRAKMEDTLKRRFFYDQAFAIYGGVSGLYDFGPVGCALKNNIIQAWRQHFIQEEQILEIDCTMLTPEPVLKTSGHVDKFADFMVKDVKNGECFRADHLLKAHLQKLMSDKKCSAEKKSEMESVLAQLDNYGQQELADLFVNYNVKSPTTGNDLSPPVPFNLMFQTFIGPGGNMPGYLRPETAQGIFLNFKRLLEFNQGKLPFAAAQIGNSFRNEISPRSGLIRVREFTMAEIEHFVDPTEKDHPKFQSVADLCLYLYSAKAQVTGQSARKMRLGDAVEQGVINNSVLGYFIGRIYLYLTKVGISPDKLRFRQHMENEMAHYACDCWDAESKTSYGWIEIVGCADRSCYDLSCHARATKVPLVAEKPLKEPKTVNVVQFEPNKGAVGKAYKKDAKLVLEYLSACDECYISEMELLLSEKGEFTIETEGKTFQLTKDMVSVKRFQKTLHVEEVVPSVIEPSFGLGRIMYTILEHTFHVREGDEQRTFFSFPAVVAPFKCSVLPLSQNQEFMPFVKELSEALTRNGVSHKVDDSSGSIGRRYARTDEIGVAFGITIDFDTVNKTPHTATLRDRDSMRQIRAEVSELPNVVRDLANGNITWADVEARYPLFEGQETGKKETVEE
B3: Solute carrier family 12 member 5 (protein, UniProt Q91V14 1-1138)
chain: MSRRFTVTSLPPAASAASADPESRRHSVADPRRLPREDVKGDGNPKESSPFINSTDTEKGREYDGRNMALFEEEMDTSPMVSSLLSGLANYTNLPQGSREHEEAENNEGGKKKPVQAPRMGTFMGVYLPCLQNIFGVILFLRLTWVVGIAGIMESFCMVFICCSCTMLTAISMSAIATNGVVPAGGSYYMISRSLGPEFGGAVGLCFYLGTTFAGAMYILGTIEILLAYLFPAMAIFKAEDASGEAAAMLNNMRVYGTCVLTCMATVVFVGVKYVNKFALVFLGCVILSILAIYAGVIKSAFDPPNFPICLLGNRTLSRHGFDVCAKLAWEGNETVTTRLWGLFCSSRLLNATCDEYFTRNNVTEIQGIPGAASGLIKENLWSSYLTKGVIVERRGMPSVGLADGTPVDMDHPYVFSDMTSYFTLLVGIYFPSVTGIMAGSNRSGDLRDAQKSIPTGTILAIATTSAVYISSVVLFGACIEGVVLRDKFGEAVNGNLVVGTLAWPSPWVIVIGSFFSTCGAGLQSLTGAPRLLQAISRDGIVPFLQVFGHGKANGEPTWALLLTACICEIGILIASLDEVAPILSMFFLMCYMFVNLACAVQTLLRTPNWRPRFRYYHWTLSFLGMSLCLALMFICSWYYALVAMLIAGLIYKYIEYRGAEKEWGDGIRGLSLSAARYALLRLEEGPPHTKNWRPQLLVLVRVDQDQNVVHPQLLSLTSQLKAGKGLTIVGSVLEGTFLDNHPQAQRAEESIRRLMEAEKVKGFCQVVISSNLRDGVSHLIQSGGLGGLQHNTVLVGWPRNWRQKEDHQTWRNFIELVRETTAGHLALLVTKNVSMFPGNPERFSEGSIDVWWIVHDGGMLMLLPFLLRHHKVWRKCKMRIFTVAQMDDNSIQMKKDLTTFLYHLRITAEVEVVEMHESDISAYTYEKTLVMEQRSQILKQMHLTKNEREREIQSITDESRGSIRRKNPANPRLRLNVPEETACDNEEKPEEEVQLIHDQSAPSCPSSSPSPGEEPEGERETDPEVHLTWTKDKSVAEKNKGPSPVSSEGIKDFFSMKPEWENLNQSNVRRMHTAVRLNEVIVNKSRDAKLVLLNMPGPPRNRNGDENYMEFLEVLTEQLDRVMLVRGGGREVITIYS

Molecular target: T1, Transglutaminase-2 (mouse (endogenous in mouse brain)) (UniProt P21981)
T1 sequence: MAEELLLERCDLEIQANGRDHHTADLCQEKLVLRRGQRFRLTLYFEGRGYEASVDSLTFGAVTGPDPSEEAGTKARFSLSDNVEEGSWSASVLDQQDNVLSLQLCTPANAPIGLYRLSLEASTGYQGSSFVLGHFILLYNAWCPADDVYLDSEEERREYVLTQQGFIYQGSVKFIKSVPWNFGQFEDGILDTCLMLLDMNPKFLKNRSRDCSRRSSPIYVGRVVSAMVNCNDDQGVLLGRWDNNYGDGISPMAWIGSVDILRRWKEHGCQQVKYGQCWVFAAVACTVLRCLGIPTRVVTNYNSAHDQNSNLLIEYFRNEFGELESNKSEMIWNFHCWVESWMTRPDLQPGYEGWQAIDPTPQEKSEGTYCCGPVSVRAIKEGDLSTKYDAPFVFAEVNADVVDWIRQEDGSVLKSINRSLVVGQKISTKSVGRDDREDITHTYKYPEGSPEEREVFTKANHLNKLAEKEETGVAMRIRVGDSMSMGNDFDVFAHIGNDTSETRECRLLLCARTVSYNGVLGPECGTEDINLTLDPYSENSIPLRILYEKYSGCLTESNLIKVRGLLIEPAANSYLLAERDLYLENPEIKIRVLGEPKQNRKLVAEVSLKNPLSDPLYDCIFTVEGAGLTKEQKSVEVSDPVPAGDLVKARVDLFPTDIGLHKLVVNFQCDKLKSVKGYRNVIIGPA
Experiment: affinity purification with mass spectrometry; TG2 immunoprecipitated from total brain homogenates of 18-month-old WT and APP23 mice with anti-TG2 antibody IA12 crosslinked to protein A/G magnetic beads, 22 h at 4 °C; IP lysis buffer 25 mM Tris pH 7.4, 150 mM NaCl, 1 mM EDTA, 1% NP40, 5% glycerol; on-bead trypsin digest, SWATH MS; TG2−/− cohorts as background, z-test p ≤ 0.05, n = 5 per cohort

| Binder | binding |
| --- | --- |
| B1 | binds |
| B2 | binds |
| B3 | binds |

— PMC8834516
